According to article PMC3199867, “Targeting surface nucleolin with multivalent HB-19 and related Nucant pseudopeptides results in distinct inhibitory mechanisms depending on the malignant tumor cell type” (BMC Cancer, 2011):
These are yes or no findings as the source states them, for the method shown. In cells and extracts the contact can be indirect. Some results given as binding are weak or reduced against the parent protein; the word gives no strength.

Protein sequences, listed by entry. Tags and fused reporters are not part of them. Residues count along the entry.
UniProt P19338: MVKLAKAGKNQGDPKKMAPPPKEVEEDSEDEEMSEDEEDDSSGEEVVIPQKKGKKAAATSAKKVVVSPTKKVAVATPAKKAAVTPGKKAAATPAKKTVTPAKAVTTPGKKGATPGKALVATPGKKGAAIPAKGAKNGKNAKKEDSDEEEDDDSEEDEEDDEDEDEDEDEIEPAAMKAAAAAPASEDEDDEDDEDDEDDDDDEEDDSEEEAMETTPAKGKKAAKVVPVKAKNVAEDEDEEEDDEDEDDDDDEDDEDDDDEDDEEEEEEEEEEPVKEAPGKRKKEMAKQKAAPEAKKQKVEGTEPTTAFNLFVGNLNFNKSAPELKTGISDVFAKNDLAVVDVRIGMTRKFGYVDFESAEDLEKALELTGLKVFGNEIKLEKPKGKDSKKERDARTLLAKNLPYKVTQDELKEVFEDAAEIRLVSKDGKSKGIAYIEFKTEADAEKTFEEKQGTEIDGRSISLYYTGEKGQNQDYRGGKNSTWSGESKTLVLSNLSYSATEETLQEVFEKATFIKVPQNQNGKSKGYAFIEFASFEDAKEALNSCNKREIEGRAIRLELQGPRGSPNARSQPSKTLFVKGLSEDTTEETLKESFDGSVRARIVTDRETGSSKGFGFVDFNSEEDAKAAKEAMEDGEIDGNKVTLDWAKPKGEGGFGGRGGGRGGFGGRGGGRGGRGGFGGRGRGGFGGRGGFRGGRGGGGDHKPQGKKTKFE
UniProt Q07021, residues 74-282: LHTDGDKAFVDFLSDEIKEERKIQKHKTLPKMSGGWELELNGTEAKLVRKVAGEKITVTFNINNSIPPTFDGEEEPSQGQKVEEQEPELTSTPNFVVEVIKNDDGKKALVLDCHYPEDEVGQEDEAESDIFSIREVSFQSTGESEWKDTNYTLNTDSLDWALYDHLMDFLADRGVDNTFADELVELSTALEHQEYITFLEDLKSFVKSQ

B1: signal recognition particle subunit SRP72 (protein, UniProt O76094 2-671)
chain: ASGGSGGVSVPALWSEVNRYGQNGDFTRALKTVNKILQINKDDVTALHCKVVCLIQNGSFKEALNVINTHTKVLANNSLSFEKAYCEYRLNRIENALKTIESANQQTDKLKELYGQVLYRLERYDECLAVYRDLVRNSQDDYDEERKTNLSAVVAAQSNWEKVVPENLGLQEGTHELCYNTACALIGQGQLNQAMKILQKAEDLCRRSLSEDTDGTEEDPQAELAIIHGQMAYILQLQGRTEEALQLYNQIIKLKPTDVGLLAVIANNIITINKDQNVFDSKKKVKLTNAEGVEFKLSKKQLQAIEFNKALLAMYTNQAEQCRKISASLQSQSPEHLLPVLIQAAQLCREKQHTKAIELLQEFSDQHPENAAEIKLTMAQLKISQGNISKACLILRSIEELKHKPGMVSALVTMYSHEEDIDSAIEVFTQAIQWYQNHQPKSPAHLSLIREAANFKLKYGRKKEAISDLQQLWKQNPKDIHTLAQLISAYSLVDPEKAKALSKHLPSSDSMSLKVDVEALENSAGATYIRKKGGKVTGDSQPKEQGQGDLKKKKKKKKGKLPKNYDPKVTPDPERWLPMRERSYYRGRKKGKKKDQIGKGTQGATAGASSELDASKTVSSPPTSPRPGSAATVSASTSNIIPPRHQKPAGAPATKKKQQQKKKKGGKGGW
B2: signal recognition particle subunit SRP68 (protein, UniProt Q9UHB9 2-627)
chain: AAEKQVPGGGGGGGSGGGGGSGGGGSGGGRGAGGEENKENERPSAGSKANKEFGDSLSLEILQIIKESQQQHGLRHGDFQRYRGYCSRRQRRLRKTLNFKMGNRHKFTGKKVTEELLTDNRYLLLVLMDAERAWSYAMQLKQEANTEPRKRFHLLSRLRKAVKHAEELERLCESNRVDAKTKLEAQAYTAYLSGMLRFEHQEWKAAIEAFNKCKTIYEKLASAFTEEQAVLYNQRVEEISPNIRYCAYNIGDQSAINELMQMRLRSGGTEGLLAEKLEALITQTRAKQAATMSEVEWRGRTVPVKIDKVRIFLLGLADNEAAIVQAESEETKERLFESMLSECRDAIQVVREELKPDQKQRDYILEGEPGKVSNLQYLHSYLTYIKLSTAIKRNENMAKGLQRALLQQQPEDDSKRSPRPQDLIRLYDIILQNLVELLQLPGLEEDKAFQKEIGLKTLVFKAYRCFFIAQSYVLVKKWSEALVLYDRVLKYANEVNSDAGAFKNSLKDLPDVQELITQVRSEKCSLQAAAILDANDAHQTETSSSQVKDNKPLVERFETFCLDPSLVTKQANLVHFPPGFQPIPCKPLFFDLALNHVAFPPLEDKLEQKTKSGLTGYIKGIFGFRS

Biological target: nucleolin (cell-surface expressed nucleolin), human (human (endogenous in HeLa, CEM, MDA-MB-231, HuT 78 and other human cell lines)) (UniProt P19338)
Test: pull-down; proteins recovered with surface nucleolin from CEM cells through HB-19/Btn and avidin-agarose (buffer E with 0.5% Triton X-100, washes in PBS/EDTA); bands of the SDS-PAGE identified by NH2-terminal microsequencing

**Q.** Which binding does the source give for “receptor for complement component C1q (gC1q-R) (from UniProt Q07021 74-282)” here?
**A.** binds

**Q.** B1 was tested. Which binding did it give?
**A.** binds

**Q.** How did the binding turn out when B2 was run?
**A.** binds
